Results taken from the supplement of paper PMC12889115.
The other results are listed elsewhere or left out. Values are raw readings; no control value is given beside them.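 First-pass screen: polymyxin B was added at a level that permeabilizes the Salmonella outer membrane while sparing the inner membrane. DMSO wells, with and without polymyxin B, defined maximum growth. Because plates differed from one another, each plate's data were ranked separately and the compounds with the lowest OD600 were carried forward as hits.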

Test system: Salmonella enterica serovar Typhimurium SL1344
Assay: bacterial growth OD600 after 18 h with compound and polymyxin B; higher = more bacterial growth (less inhibition)
Conditions: 50 µM, Mueller-Hinton broth

With `Cc1c(CNC(=O)C2CCCN(C3CCN(C(C)C)CC3)C2)cnn1C` (centres undefined) the “bacterial growth OD600” value (polymyxin B 0.75 µg/mL) was 0.963.
For `COc1ccc2cc(-c3n[nH]cc3CNC(C)c3cccs3)ccc2c1` (centres undefined), the “bacterial growth OD600” value (polymyxin B 1 µg/mL) was 0.91.
With `O=C(NCc1ccccc1-n1cncn1)C1CCC(=O)N(C2CCCCCC2)C1` (centres undefined) the “bacterial growth OD600” value (polymyxin B 1 µg/mL) was 0.964.
With `CCOC(=O)C1(Cc2ccc(F)cc2F)CCCN(C(=O)c2cccnc2SC)C1` (centres undefined) the “bacterial growth OD600” value (polymyxin B 1 µg/mL) was 1.1.
With `CC(C)N1CC(C(=O)NCc2nc(NCc3cccc(C(F)(F)F)c3)c3ccccc3n2)CC1=O` (centres undefined) the “bacterial growth OD600” value (polymyxin B 0.75 µg/mL) was 0.008.
`O=C(c1cc(F)c(F)cc1F)N1CCOc2ccc(CN3CCc4sccc4C3)cc2C1` was tested, and the “bacterial growth OD600” value (polymyxin B 0.75 µg/mL) was 0.003.
In the case of `CCn1ncc(CN2CCN(Cc3cc(OC)cc(OC)c3)C(CCO)C2)c1C` (centres undefined), the “bacterial growth OD600” value (polymyxin B 1 µg/mL) is reported as 0.914.
For `CN(Cc1cnc2ccccn12)C(=O)CCN1Cc2ccccc2OC(c2ccccc2F)C1` (centres undefined), the “bacterial growth OD600” value (polymyxin B 0.75 µg/mL) was 0.012.
With `CCOC(=O)C1(CCCc2ccccc2)CCCN(C(=O)c2ccc(COC)o2)C1` (centres undefined) the “bacterial growth OD600” value (polymyxin B 1 µg/mL) was 0.441.
With `O=C1CCC(CCNCc2cc3c(cc2Cl)OCO3)N1CC(c1cccnc1)N1CCOCC1` (centres undefined) the “bacterial growth OD600” value (polymyxin B 0.75 µg/mL) was 0.806.
In the case of `CN(CCN1CCCCC1)Cc1cnc(S(C)(=O)=O)n1CC1CCCO1` (centres undefined), the “bacterial growth OD600” value (polymyxin B 0.75 µg/mL) is reported as 0.859.
In the case of `O[C@H]1CCN(c2ccc(-c3nc(COc4ccccc4)no3)cn2)C1`, the “bacterial growth OD600” value (polymyxin B 1 µg/mL) is reported as 0.798.
`c1ccc(Cn2cc(CN3CCOCC3)c(-c3cc4ccccc4o3)n2)cc1` was tested, and the “bacterial growth OD600” value (polymyxin B 1 µg/mL) was 0.369.
For `CC(C)(C)C(=O)NC1CC(=O)N(CCc2cccc(Cl)c2)C1` (centres undefined), the “bacterial growth OD600” value (polymyxin B 1 µg/mL) was 0.82.
In the case of `COc1cccc(CC(C2CCN(C(=O)c3csc(C)n3)CC2)N(C)C(=O)c2ccsc2)c1` (centres undefined), the “bacterial growth OD600” value (polymyxin B 0.75 µg/mL) is reported as 0.888.
With `COC(=O)c1c(OCC2CCCCO2)cc(=O)n2c1CCN(C(=O)COc1ccc(C)cc1)CC2` (centres undefined) the “bacterial growth OD600” value (polymyxin B 0.75 µg/mL) was 0.814.
With `COCCn1c(CN2CCCC(C)C2)cnc1S(=O)(=O)C1CCCCCC1` (centres undefined) the “bacterial growth OD600” value (polymyxin B 1 µg/mL) was 0.013.
`CC1CCN(Cc2nnnn2CC(=O)N2CCCC(C(=O)c3ccccn3)C2)CC1` (centres undefined) was tested, and the “bacterial growth OD600” value (polymyxin B 1 µg/mL) was 0.917.
In the case of `COc1cccc(NC(=O)CCC2CCN(C(=O)[C@@H]3C[C@H]3c3ccccc3)CC2)c1`, the “bacterial growth OD600” value (polymyxin B 1 µg/mL) is reported as 0.695.
